Measurements: publication doi:10.1101/2025.02.04.636395, “Identification of a RAB32-LRMDA-Commander membrane trafficking complex reveals the molecular mechanism of human oculocutaneous albinism type 7” (bioRxiv, 2025)
Numbering of substitutions follows the chain as printed. Results are given in words; binding and its absence hold for the method and conditions named. Binding seen in cells or lysates may run through a third protein. Here binding means that the protein was enriched with, or labelled near, the bait; the list need not be complete. For part of these data: No binding means not detected with the bait. Sequences can lack the tags named with a protein.

Legend:
GFP-LRMDA F145D (human) = biological target: T1, GFP-LRMDA F145D (human); experiment: affinity purification with mass spectrometry; GFP-trap from lysates of stably transduced RPE1 cells; TMT proteomics; GFP-LRMDA against GFP, mutants against wild-type GFP-LRMDA
T1 sequence: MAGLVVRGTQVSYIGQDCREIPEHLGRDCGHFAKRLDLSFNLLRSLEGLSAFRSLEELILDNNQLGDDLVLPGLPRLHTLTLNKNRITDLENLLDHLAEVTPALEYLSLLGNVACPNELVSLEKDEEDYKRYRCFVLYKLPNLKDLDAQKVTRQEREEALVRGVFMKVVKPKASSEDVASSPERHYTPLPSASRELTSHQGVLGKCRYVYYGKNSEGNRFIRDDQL

GFP-LRMDA (human) [1] = biological target: T2, GFP-LRMDA (human); experiment: as above
T2 sequence: T1 sequence with D145F

GFP-LRMDA(L226G) (human) = biological target: T3, GFP-LRMDA(L226G) (human); experiment: as above
T3 sequence: T1 sequence with D145F, L226G

GFP-LRMDA (human) [2] = biological target: T2, GFP-LRMDA (human); experiment: affinity purification with mass spectrometry; GFP-trap from lysates of stably transduced MNT1 cells (GFP-LRMDA or GFP-VPS26C against GFP); TMT proteomics
[3] = biological target: T4, GFP-LRMDA (human), A0A087; experiment: affinity purification with mass spectrometry; GFP-trap from lysates of stably transduced RPE1 cells; TMT proteomics; GFP-LRMDA against GFP, mutants against wild-type GFP-LRMDA; settings: remark: other sources report otherwise
T4 chain: T1 sequence with D145F

[4] = biological target: T4, GFP-LRMDA (human), A0A087; experiment: affinity purification with mass spectrometry; GFP-trap from lysates of stably transduced MNT1 cells (GFP-LRMDA or GFP-VPS26C against GFP); TMT proteomics; settings: remark: other sources report otherwise

B1: recombinant RAB32 (natural protein, human, UniProt Q13637 1-225, looked up)
chain: MAGGGAGDPGLGAAAAPAPETREHLFKVLVIGELGVGKTSIIKRYVHQLFSQHYRATIGVDFALKVLNWDSRTLVRLQLWDIAGQERFGNMTRVYYKEAVGAFVVFDISRSSTFEAVLKWKSDLDSKVHLPNGSPIPAVLLANKCDQNKDSSQSPSQVDQFCKEHGFAGWFETSAKDNINIEEAARFLVEKILVNHQSFPNEENDVDKIKLDQETLRAENKSQCC
notes: RAB32, human; synthetic gene codon-optimised for S. frugiperda; also called tag-less RAB32; purified RAB32; source: Sf21 insect cells (baculovirus), purified (Glutathione Sepharose, TEV cleavage); not shown: GST, N-terminal, cleaved
binding (GFP-LRMDA F145D (human)): no binding | binding (GFP-LRMDA (human) [1]): binds | binding (GFP-LRMDA(L226G) (human)): binds | binding (GFP-LRMDA (human) [2]): binds

B2: RAB38 (endogenous), P57729 1-211 (protein)
chain: MQAPHKEHLYKLLVIGDLGVGKTSIIKRYVHQNFSSHYRATIGVDFALKVLHWDPETVVRLQLWDIAGQERFGNMTRVYYREAMGAFIVFDVTRPATFEAVAKWKNDLDSKLSLPNGKPVSVVLLANKCDQGKDVLMNNGLKMDQFCKEHGFVGWFETSAKENINIDEASRCLVKHILANECDLMESIEPDVVKPHLTSTKVASCSGCAKS
binding [3]: no binding | binding [4]: no binding
